Literature values, collected in paper PMC10734620, “A blinded in vitro analysis of the intrinsic immunogenicity of hepatotoxic drugs: implications for preclinical risk assessment” (Toxicological Sciences, 2023).

Columns and labels:
[1] = design: method as in Sakatis et al., 2012; Schofield et al., 2021; settings: Positive = above the threshold of concern; assays not listed negative; ref Sakatis et al., 2012; Schofield et al., 2021; cited from earlier work
[2] = design: method as in earlier work; settings: ref National Institute of Diabetes and Digestive and Kidney Diseases (2012); cited from earlier work
[3] = design: method as in FDA DILIrank datasets; settings: ref FDA DILIrank datasets; cited from earlier work

Compound	Routine Assays that are Positive (GSK) [1]	LiverTox annotation: likelihood as cause of clinically apparent liver injury [2]	FDA Clinical Hepatotoxicity Concern [3]
O=C(O)c1cn(C2CC2)c2cc(N3CCNCC3)c(F)cc2c1=O [Ciprofloxacin]	None		
CN(C)CCOC(c1ccccc1)c1ccccc1 [Diphenhydramine]	None	Unlikely to be a cause of clinically apparent liver injury	No
